Measured values as given in PubChem BioAssay AID2685 (National Center for Advancing Translational Sciences (NCATS), 2010).
The other results are listed elsewhere or left out. These are further read-outs of the screen, such as a control signal, another cell line or another target. No call is given for them. Compounds called inactive in the main read-out are mostly missing here. The note in brackets gives the kind of curve behind each potency; many fits are weak.

Assay: qHTS Assay for Lipid Storage Modulators in Drosophila S3 Cells;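 as to cell number change: cells counted by Cell Tracker Red CMTPX staining in the red channel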
Settings: BODIPY lipid droplet fluorescence, 18-24 h; for cell number change: measured here: cell count max response, cells fed with added oleic acid
How it was run: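 Drosophila S3 cells got compounds at several concentrations plus oleic acid (400 uM solution). Laser-scanning cytometry with 488 nm excitation read lipid droplets at 500-530 nm and cells at 575-640 nm. Percent activity was relative to 20 uM Triacsin C.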

[1] = measured here: cell number channel AC50, cells fed with added oleic acid
[2] = measured here: lipid fluorescence (Fed channel) AC50, cells fed with added oleic acid

SMILES	cell number change [%]	AC50 [1]	AC50 [2]
Cc1ccc2c(c1)-c1ccccc1S(=O)(=O)N2	35.4	20.6 µM [rising, single point]	29.1 µM [rising, single point]
CCOC(=O)N1CCN(C(=O)CCc2nc3sc4c(c3c(=O)[nH]2)CCCC4)CC1	-19.8		
O=C(Nc1ncccn1)c1ccc(C(F)(F)F)cc1	12.1		0.651 µM [falling, full curve, poor fit]
COc1cc2c(cc1OC)C1(Nc3c-2c(Cc2ccccc2)nn3-c2ccccc2)C(=O)Nc2ccccc21 (centres undefined)	0.462		6.51 µM [rising, single point]
Clc1ccc(-n2cccc2/C=N/n2cnnc2)cc1	28.2		0.0651 µM [falling, full curve, poor fit]
Nc1nc(SCC(=O)c2ccc(Br)s2)n[nH]1	6.84	0.411 µM [rising, full curve]	0.82 µM [rising, partial curve]
O=C(Nc1nc(-c2ccccc2)cs1)c1ccc(N2CCOCC2)c([N+](=O)[O-])c1	-42.5	14.6 µM [falling, partial curve]	14.6 µM [falling, partial curve]
CCOc1ccc(N2CC(C(=O)NCCC3=CCCCC3)CC2=O)cc1 (centres undefined)	-6.52		6.51 µM [falling, partial curve]
CCOc1ccccc1NC(=O)CCNC(=O)Cn1ccc2ccccc2c1=O	3.95	0.0731 µM [rising, full curve, poor fit]	5.62 µM [rising, single point]
Cc1oc2c(C)c(O)ccc2c(=O)c1N1C(=O)c2ccccc2C1=O	3.26		
O=C(Nc1ccc(S(=O)(=O)N2CCOCC2)cc1)c1ccc(Cl)cc1	-15.4		
COc1ccc(C(=O)Nn2c(CC(C)C)nc3cc(OC)c(OC)cc3c2=O)c(OC)c1	-12.6		29.1 µM [falling, single point]
COc1ccccc1NC(=O)CSc1n[nH]c(-c2ccccn2)n1	13.2		
CC(=O)NC(N1CCCCC1)C(F)(F)C(F)(F)C(F)(F)C(F)F (centres undefined)	-0.325		29.1 µM [falling, single point]
O=C(Cc1ccccc1)Nc1ccnn1C1CCN(Cc2ccc(CO)o2)CC1	30.7	0.92 µM [rising, full curve, poor fit]	6.51 µM [rising, single point]
O=C(C1CCN(S(=O)(=O)c2ccc3ccccc3c2)CC1)N1CCN(c2ncccn2)CC1	32	5.8 µM [rising, partial curve]	4.11 µM [rising, single point]
CC(=O)Oc1ccc(-c2cccc(C(=O)O)c2)cc1	16.5		0.259 µM [falling, full curve]
CCOC(=O)c1cc(-c2ccccc2)sc1NC(=O)CCN1C(=O)c2ccccc2C1=O	-2.89		0.164 µM [rising, full curve, poor fit]
O=C(O)c1cccnc1SC1CC(=O)N(c2ccc(OC(F)F)cc2)C1=O (centres undefined)	-32.4	0.82 µM [falling, full curve, poor fit]	8.2 µM [falling, partial curve]
COc1cc(OC)cc(C(=O)N[C@H](C(=O)OCC(=O)Nc2cccc(F)c2)C(C)C)c1			20.6 µM [rising, single point]

SMILES	cell number change [%]	AC50 [1]	AC50 [2]
CCCCNC(=O)c1cc2n(n1)C(C(F)(F)F)CC(c1ccccc1)N2 (centres undefined)	11.8		8.2 µM [rising, partial curve, poor fit]
CC(=O)c1ccc(NC(=O)COc2ccc3c(c2)OCO3)cc1	19.4		
COC(=O)C(NC(=O)C(C)NC(=O)OCc1ccccc1)C(C)C (centres undefined)	-17.8		3.66 µM [falling, single point]
NC(=O)C1CCN(C(=O)COCc2cc(-c3ccc4c(c3)OCO4)on2)CC1	17.3		16.4 µM [rising, partial curve]
N#Cc1ccccc1COC(=O)c1ccc2c(c1)OCCO2	106	10.3 µM [rising, partial curve]	
CN(C)C(=O)c1ccc(Nc2nc(-c3cccs3)nc3ccccc23)cc1	13.9		
CCOc1cc(S(=O)(=O)Nc2ccccc2CC)ccc1Cl	-18		0.82 µM [falling, full curve]
Cc1cc(C)c(S(=O)(=O)N(C)CC(=O)NCCCn2ccnc2)c(C)c1	-14.5		35.5 µM [rising, single point]
CCc1noc(C)c1C(=O)OCC(=O)N(CCOC)c1c(N)n(Cc2ccccc2)c(=O)[nH]c1=O	32.5	25.9 µM [rising, single point]	
COC(=O)c1ccccc1NC(=O)CSc1nnc(C(CO)NC(=O)c2ccccc2Cl)n1C (centres undefined)	8.96		5.17 µM [rising, single point]
CCC(C(=O)O)n1nc(-c2ccccc2)c2cc(Cl)ccc21 (centres undefined)	21		11.6 µM [rising, partial curve]
Cc1ccc(S(=O)(=O)c2c(C)nn(-c3ccccc3)c2OC(=O)c2ccc(Br)o2)cc1	60.6	3.26 µM [falling, partial curve]	10.3 µM [rising, partial curve]
Cc1ccc(CCNC(=O)c2cccc(N3CCCC3=O)c2)cc1	15		20.6 µM [rising, single point]
CC1=C(C(=O)Nc2cccnc2)C(c2ccncc2)n2nnnc2N1 (centres undefined)	-2.02		6.51 µM [falling, single point]
COc1ccc(OC)c2c1sc(=NC(=O)C(C)(C)C)n2C	15.5		
Cc1cccc(N2CCN(C(=O)NC3CCCCC3)CC2)c1C	8.07		
CCC(C#CCN1CCCCC1)(CC)OCCC#N	-1.6		
COc1cccc(NC(=O)CN(C)C(=O)c2c(C)nn(CC(C)C)c2Cl)c1	-17.3		6.51 µM [rising, partial curve, poor fit]
Cc1cc(S(=O)(=O)Nc2ccc(F)cc2)c(C)s1	-31.6	29.1 µM [falling, single point]	6.51 µM [rising, single point]
O=C(CCc1nnc(Cc2ccc(-c3ccccc3)cc2)o1)NCC1CC1	0.873		

3 entries from above, set out differently:
SMILES,cell number change [%],AC50 [1],AC50 [2]
CCC(C(=O)O)n1nc(-c2ccccc2)c2cc(Cl)ccc21 (centres undefined),21,,"11.6 µM [rising, partial curve]"
Cc1ccc(S(=O)(=O)c2c(C)nn(-c3ccccc3)c2OC(=O)c2ccc(Br)o2)cc1,60.6,"3.26 µM [falling, partial curve]","10.3 µM [rising, partial curve]"
Cc1ccc(CCNC(=O)c2cccc(N3CCCC3=O)c2)cc1,15,,"20.6 µM [rising, single point]"

Later entries

SMILES	cell number change [%]	AC50 [1]	AC50 [2]
COc1ccc(Cl)cc1NC(=O)CN(C)C(=O)C1CC(=O)N(Cc2ccc(C)cc2)C1 (centres undefined)	21.6	3.66 µM [rising, full curve, poor fit]	
CC(/C=C/c1ccccc1)=N\NC(=O)c1cc(C)[nH]n1	35.1	2.06 µM [rising, full curve]	
CCOc1ccc(/C=C/C(=O)Oc2ccc(OC)cc2)cc1	-3.17		1.46 µM [rising, partial curve, poor fit]
CC1(C)CC(=O)C=C(C(=O)NC2CCCc3c2cnn3-c2cc(F)cc(F)c2)O1 (centres undefined)	-26.2	1.84 µM [falling, partial curve, poor fit]	0.58 µM [falling, single point]
COc1ccc(S(=O)(=O)Cc2ccc(C(=O)N3CCN(c4cccc(C)c4C)CC3)o2)cc1	-1.29		3.26 µM [rising, single point]
Cc1cccc(N2CCN(C(=O)c3cccc(N4C(=O)C5C6C=CC(C6)C5C4=O)c3)CC2C)c1 (centres undefined)	57.4	14.6 µM [rising, single point]	
O=C(NCCCCC(NC(=O)C1CCCCC1)C(=O)O)c1ccccc1 (centres undefined)	-41.5	23.1 µM [falling, single point]	25.9 µM [falling, single point]
CN(CC(=O)Nc1ccc(OC(F)(F)F)cc1)C(=O)c1ccc(N2CCCC2=O)cc1	0.907		29.1 µM [falling, single point]
CC(C)C(=O)Nc1cccc(-c2cn3ccsc3n2)c1	4.14		18.4 µM [rising, single point]
CN1CCN(c2cc(=O)n(C3CCCCC3)c(=O)[nH]2)CC1	-42.4	0.517 µM [falling, full curve]	14.6 µM [falling, partial curve]
CCOc1ccc(CCNC(=O)COC(=O)c2oc3ccccc3c2COC)cc1OCC	-48.2	9.2 µM [falling, partial curve, poor fit]	0.164 µM [falling, full curve]
CC(C)c1ccc(S(=O)(=O)N2CCN(CC(O)CN3CCOCC3)CC2)cc1 (centres undefined)	-0.774		0.116 µM [falling, full curve, poor fit]
CCOc1ccc(N(C)S(=O)(=O)c2ccc3[nH]cc(C(=O)NCC(OC)OC)c(=O)c3c2)cc1	-29.1		29.1 µM [falling, single point]
Cc1nn(-c2ccccc2)c(N)c1C(O)(C(F)(F)F)C(F)(F)F	28.7		
Clc1cccc(-c2nn3c(-c4ccncc4)nnc3s2)c1	-1.25		
O=C(O)c1cc(S(=O)(=O)N2CCOCC2)c[nH]1	13.4		
CCN(CC)S(=O)(=O)c1cc(NC(=O)C2CCN(c3ncnc4sc(C)c(C)c34)CC2)ccc1Cl	-6.5	3.26 µM [rising, partial curve, poor fit]	
Cc1csc(SCCn2c(Br)nc3c2c(=O)[nH]c(=O)n3C)n1	26.1		5.17 µM [rising, full curve, poor fit]
O=C(CC12CC3CC(CC(Br)(C3)C1)C2)Nc1nncs1	12.6		6.51 µM [rising, partial curve]
CCOc1ccc(NS(=O)(=O)c2ccc(C(=O)NCC3(N(C)C)CCCCC3)cc2)cc1		4.11 µM [rising, partial curve]	6.51 µM [rising, single point]
